Assay results published in the supplement of paper PMC7125110.
± gives the standard error. Many of these values have a large error.

B1: glmS ribozyme (parent)
chain: AUAAAAGCGCCAGAACUACAGAAAUGUAGUUGACGAGGAGGAGGUUUAUCGAAUUUUCGGCGGAUGCCUCCAAA

Variants of: B1
Assay: KM; higher = weaker cofactor use; RNA array
Conditions: with glucosamine-6-phosphate
Summary of the method: (§1)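 In situ transcription by E. coli RNA polymerase produced barcoded ribozyme variants on sequenced MiSeq chips, and a hybridised Cy3 probe tracked them at 37 °C. Glucosamine-6-phosphate was flowed in at 40 μM to 10 mM in HEPES/KCl/Mg(OAc)2 buffer. kcat and KM were taken from weighted Michaelis–Menten fits of kobs values from exponential decay fits.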

| Variant | KM [µM] |
| --- | --- |
| A14U U46C | 956 ± 430 |
| A14U U46A | 2000 ± 930 |
| A15G U56A | 1700 ± 790 |
| G32A U65A | 4120 ± 2200 |
| C16A C71U | 509 ± 470 |
| C11A U54G | 2170 ± 1300 |
| G7U G66U C70G | 9.89 ± 7.5 |
| A14G G60C | 2710 ± 2600 |
| U54A U55G | 1700 ± 1400 |
| G7A A39G | 105000 ± 25000 |
| G29C C71A | 326 ± 220 |
| G29A C71G | 833 ± 470 |
| U31G U65C | 3350 ± 2200 |
| G29A A39U | 3440 ± 1600 |
| A12C G29U U47G | 4280 ± 2100 |
| U30A A64G | 1670 ± 240 |
| G13C G43U C67A | 32600 ± 21000 |
| U30C U54C | 1670 ± 1400 |
| G29U C70A | 315 ± 190 |
| G32A U46A | 16900 ± 850 |
| A15U G44A | 2790 ± 140 |

| Variant | KM [µM] |
| --- | --- |
| A6U U30C | 29.4 ± 16 |
| C16U U57G | 1380 ± 790 |
| A39U A48C | 836 ± 370 |
| G29C U54G | 1090 ± 710 |
| G32C U55G | 10500 ± 1800 |
| G13C C70U | 1400 ± 140 |
| U55G C67G | 183 ± 170 |
| A12C U46G | 1950 ± 600 |
| C10U G32C | 1070 ± 750 |
| A15C G32U | 6690 ± 540 |
| G35A G37U | 3390 ± 2000 |
| G32A G66U | 4000 ± 2500 |
| A15U C67U | 1920 ± 970 |
| U30C G32U | 3230 ± 1300 |
| A15G G29A | 833 ± 570 |
| U31G U55A | 556 ± 400 |
| G43C U45G | 1950 ± 980 |
| A39G C68U | 265 ± 230 |
| A15G A39G | 792 ± 410 |
| U31A G41A | 1840 ± 1400 |
| G41C C71U | 2580 ± 590 |

| Variant | KM [µM] |
| --- | --- |
| A33G C61A | 70.5 ± 43 |
| A6G A39G | 6330 ± 3500 |
| A6G A39U | 1490 ± 84 |
| U45C U54G | 829 ± 800 |
| C16G C70U | 182 ± 110 |
| G32C A52G | 7100 ± 4400 |
| U47C C58U | 12300 ± 1400 |
| U31C U45C | 4690 ± 1600 |
| G13U U31G | 2760 ± 1900 |
| A14U A39U A52G | 113000 ± 20000 |
| A36C G38C | 43.6 ± 31 |
| A33G G37C | 1520 ± 780 |
| C10A A39G | 13.2 ± 9.7 |
| C16G U31G | 2360 ± 940 |
| G41A C70G | 699 ± 480 |
| C11A C71G | 249 ± 160 |
| C11A C71A | 3970 ± 3500 |
| A12U C16A U56A | 850 ± 560 |
| U30G G32A | 4720 ± 2300 |
| A12C C71G | 689 ± 460 |

Some of the entries above, set out differently:
Variant,KM [µM]
A15U C67U,1920 ± 970
U30C G32U,3230 ± 1300
A15G G29A,833 ± 570
U31G U55A,556 ± 400

Variants of: B1
Assay: self-cleavage kobs at 640 uM GlcN6P; higher = faster cleavage; RNA array
Conditions: with glucosamine-6-phosphate
Summary of the method: as §1

| Variant | self-cleavage kobs at 640 uM GlcN6P [s⁻¹] |
| --- | --- |
| C11A U54G | 0.00999 ± 0.007 |
| A39U A48C | 0.00523 ± 0.004 |
| A14U A39U A52G | 1.42e-05 ± 1.3e-05 |
| C11A C71G | 3.09e-05 ± 1.8e-05 |
| C11A C71A | 2.74e-05 ± 1.4e-05 |

Variants of: B1
Assay: self-cleavage kobs at 160 uM GlcN6P; higher = faster cleavage; RNA array
Conditions: with glucosamine-6-phosphate
Summary of the method: as §1

| Variant | self-cleavage kobs at 160 uM GlcN6P [s⁻¹] |
| --- | --- |
| C11A U54G | 2.05e-05 ± 1.7e-05 |
| G62U U69G | 2.6e-05 ± 1.5e-05 |
| G29C C71A | 5.2e-05 ± 2.7e-05 |
| G29A C71G | 3e-05 ± 2.3e-05 |
| G29U C70A | 1.24e-05 ± 9.8e-06 |
| A39U A48C | 2.6e-05 ± 1.4e-05 |
| G13C C70U | 1.99e-05 ± 1.5e-05 |
| U31C U45C | 2.94e-05 ± 2e-05 |
| C11A C71G | 2.42e-05 ± 1.6e-05 |

Variants of: B1
Assay: kcat; higher = faster cleavage; RNA array
Conditions: with glucosamine-6-phosphate
Summary of the method: as §1

| Variant | kcat [s⁻¹] |
| --- | --- |
| G62U U69G | 3.26e-05 ± 2e-05 |
| U54A U55G | 0.0218 ± 0.015 |
| U46C C71G | 0.000293 ± 0.00017 |
| U54G C67G | 0.000283 ± 0.00028 |
| A39U A48C | 0.000221 ± 2.1e-05 |
| U55G C67G | 0.000672 ± 0.00037 |
| G43C U45G | 0.00237 ± 0.00082 |
| A39G C68U | 0.00365 ± 0.0023 |
| G41C C71U | 0.000207 ± 2.1e-05 |
| U45C U54G | 0.00107 ± 0.00071 |
| U47C C58U | 0.000109 ± 7.3e-06 |
| C50U G59U U69A C70G | 5.72e-05 ± 5.5e-05 |
| G41A C70G | 0.000368 ± 0.00014 |
| G60U G66C | < 1e-05 |

Variants of: B1
Assay: self-cleavage kobs at 40 uM GlcN6P; higher = faster cleavage; RNA array
Conditions: with glucosamine-6-phosphate
Summary of the method: as §1

| Variant | self-cleavage kobs at 40 uM GlcN6P [s⁻¹] |
| --- | --- |
| G29A C71G | 2.03e-05 ± 1.5e-05 |
| A12C G29U U47G | 1.69e-05 ± 1.6e-05 |
| A6G A39G | 3.03e-05 ± 1.6e-05 |
| C11A C71G | 2.41e-05 ± 2e-05 |

Variants of: B1
Assay: self-cleavage kobs at 2500 uM GlcN6P; higher = faster cleavage; RNA array
Conditions: with glucosamine-6-phosphate
Summary of the method: as §1

| Variant | self-cleavage kobs at 2500 uM GlcN6P [s⁻¹] |
| --- | --- |
| A15U G44A | 1.75e-05 ± 1.6e-05 |
| U47C C58U | 1.87e-05 ± 9.7e-06 |

Variants of: B1
Assay: self-cleavage kobs at 10000 uM GlcN6P; higher = faster cleavage; RNA array
Conditions: with glucosamine-6-phosphate
Summary of the method: as §1

| Variant | self-cleavage kobs at 10000 uM GlcN6P [s⁻¹] |
| --- | --- |
| G32C A52G | 1.14e-05 ± 1e-05 |
| G41A C70G | 0.00449 ± 0.0037 |
